Reference: PubChem BioAssay AID1347423 (Functional Genomics Laboratory (NCATS/FGL), 2020)
About 210 (0.4%) of roughly 52,000 sequences were called active.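 The calls were made as follows: active = gene whose silencing raises cell survival under the drug, median off-target-corrected z-score across its silencing RNAs 2 or more; inactive = the rest.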 The list shows a part of the results.

Test: Resistance to Poly (ADP-Ribose) Polymerase inhibitor: Gene Identification via Genome-wide siRNA Screen
Conditions: mouse BRCA2 R2336H ES cells, olaparib, CellTiter-Glo viability; hits give high values
From the text: The role of Poly (ADP-Ribose) Polymerase (PARP) proteins in DNA repair has been elegantly utilized for the synthetic lethality-based treatment of BRCA-deficient tumors by PARP inhibitors. PARP inhibitors are now being used for treatment of BRCA-deficient breast and ovarian cancers. […] While several mechanisms of drug resistance have been identified, majority of these tumors develop drug resistance due to unknown causes. To identified novel regulators of chemo-resistance in BRCA2-mutated cells, we performed a genome wide siRNA library screen. We have found ES cells expressing a hypomorphic allele of BRCA2 to be hypersensitive to PAPP inhibitors (such as olaparib). We used ES cells expressing a mutant allele of BRCA2 that has a single amino acid substitution at position 2336 (arginine to histidine, R2336H). The screen was conducted using an Ambion (Thermo) Silencer Mouse Genome siRNA collection. The library targets 17,575 mouse genes with 3 siRNAs per gene. TET2 (E130014J05Rik) was identified as a top candidate.
Transfections were performed in 384 well plates (Corning 3707). Plates were coated with 0.1% gelatin in H2O overnight at ambient temperature. Gelatin solution was aspirated (BioTek EL406) and siRNAs were printed using a Bravo VPrep liquid handler integrated within a BioCel automation platform (Agilent). Cell viability was measured using CellTiter Glo (Promega). For transfections, […] of serum free media containing Lipofectamine RNAiMax […] was added to wells containing siRNA (0.8pmol). Lipid and siRNA were allowed to complex for 45 min at ambient temperature before addition of 1000 cells in DMEM, 30% FBS to yield final transfection mixtures containing 20 nM siRNA in DMEM, 15% FBS. PARPi (olaparib, AZD2281) was added 48 h post-transfection (500 nM) and viability (CellTiter Glo, Promega) was assayed 72 h later on a PerkinElmer Envision 2104 Multilabel plate reader. Ambion Silencer Select Negative Control #2 was incorporated on all screening plates (16 wells) and the median negative control value on each plate was used for normalization. An siRNA targeting Trp53 was used as a positive control. This control yielded a median protective effect of ~1.9 fold versus negative control throughout the screen. The median absolute deviation (MAD) based z-score was calculated for each siRNA. Genes were then ranked by taking the median value for all siRNAs tested against a given gene. Scores were also adjusted for seed-based off-target effects to help deprioritize likely false positives.

Row | Sequence | z-score
1 | GGAAAAAUGUGCUGUGUGGTT against Tcea1 | inactive: -0.239
2 | GAGCCUUUCCUUUCUGGACTT against Olfr466 | inactive: 0.551
3 | GCAGUGGGAAUCGAUAAAGTT against Fgfr2 | inactive: -0.186
4 | GGUCAUCUCCUAUGGAAAUTT against C030004A17Rik | inactive: 1.23
5 | GGGUCACCAUCAAGAUGGATT against Erg | inactive: -0.867
6 | GGUGCAUAAAACCCUUAAATT against Rbms1 | inactive: -0.239
7 | GGCUUGCUAAAGGAUGGGATT against Adck4 | inactive: -0.769
8 | GGAGAAUGUUUUUGACUGGTT against BC024997 | inactive: 0.154
9 | CCAUAUAACUGCCAAUAAUTT against 4930532L20Rik | inactive: -0.458
10 | CAUGGUUUUUAGAGACAAUTT against Olfr774 | inactive: -0.67
11 | CGAAGUACCUGAAUUUUGCTT against Pde6b | inactive: -0.682
12 | GCCACUCUAUGUGAACACATT against Hmgb2l1 | inactive: 1.01
13 | GGAAGGAGAUUACAUUGUUTT against Rhpn2 | inactive: 0.407
14 | GCUCCUGAACUAAUACAAGTT against Melk | inactive: -1.08
15 | GGAAAAUGGAAUCUUCGGUTT against 4933435A13Rik | inactive: 1.31
16 | GGCAUUUCUUCAAAGCUGATT against 9430083I22 | inactive: -1.25
17 | GGAAAGCAAAAAGUUUCAGTT against C030004A17Rik | inactive: 0.798
18 | GGAACUUUUUAAGAUGCGUTT against Ranbp1 | inactive: 0.484
19 | GGCAGACUCUGCCUACUUATT against Utf1 | inactive: 0.133
20 | GGAUGGACAACAUCAAACATT against Ltbp2 | inactive: 1.13
21 | GGAACUACUUUGAGAGCACTT against Arl2 | inactive: -1.18
22 | CCAAAGGAAUGCGUUUUACTT against Msh2 | inactive: 1.78
23 | CGAUGUACUCCAUGUUGGGTT against Bpil3 | inactive: 0.145
24 | CCGGAAGAUCAAUAUAAGATT against Crisp2 | inactive: 0.925
25 | GGCUAUUGUUUCAUCCUGATT against Emp1 | inactive: -0.569
26 | CGGAAUGAUCUAGAAAAUATT against B130017I01Rik | inactive: 1.03
27 | GCUAAACAGAACAGGUUGUTT against Gp38 | inactive: -0.112

Row | Sequence | z-score
28 | GGCCAGCUCUCUUUUGCUATT against Cflar | inactive: 0.643
29 | GGAAAAAAGGUCUGUAAAUTT against 4930522D07Rik | inactive: -0.442
30 | CGAGUAUGCCGAAAACACUTT against Car6 | inactive: -0.00439
31 | GCUGACAAAGUCGUUUCCUTT against Olfr732 | inactive: -0.268
32 | GGAGAAAACACAAUGUCUUTT against Limd1 | inactive: -0.414
33 | CCACCACAAGUACCGUAAATT against 0610033H09Rik | inactive: 1.49
34 | CCCAAGAAUGACCAAGUAGTT against Gpr17 | inactive: -3.19
35 | CCAUUACAGGGUUUUUUAUTT against Slc37a3 | inactive: 0.0842
36 | GGCUAAGUGGGUGUUCACGTT against Slc24a4 | inactive: -0.409
37 | GGUAUUGUGUUUCCCAAACTT against BC018371 | inactive: -0.387
38 | GGCUUUUGACUUUACCCUATT against Acy3 | inactive: -1.38
39 | UUACUCAGUUCUCACCUUCTT against Olfr970 | inactive: -2.89
40 | GGUAUGAGUACAAAUACUGTT against Tek | inactive: -0.81
41 | GACCGAGUUCAAAGCGAACTT against Atp5e | inactive: -2.59
42 | GCCUGUCGUACCUCCUUUATT against Folr2 | inactive: -0.854
43 | GGUGGAUGAAGUUAUUGAUTT against Vamp4 | inactive: 0.0211
44 | GGAGUCGUCAACUCUGGCUTT against Lsm10 | inactive: -0.263
45 | GGUGAAUGCACCUUGACCCTT against 4921511D23Rik | inactive: -0.187
46 | UUCGGAUCCUAACUUCAACTT against Zmynd12 | inactive: -1.22
47 | CGACUACACAACCUUUGGGTT against Prlpa | inactive: -1.03
48 | GGGCAAAGCCUUCAACCCUTT against Insl6 | inactive: -0.729
49 | CGCAGAUGUGUUAACUAAATT against 3110038L01Rik | inactive: 0.116
50 | GGAGAGUGUGUUUUCAGGCTT against Bop1 | inactive: 1.27
51 | GGGUGUCAAUUUACUUUUUTT against Slc16a2 | inactive: 0.33
52 | GCAUGCAUGUAUUUUUUAGTT against E030018N11Rik | inactive: 0.237
53 | CCUCUAUGUGAGAUUUGAGTT against Mamdc2 | inactive: -0.131
54 | GGUGGUCCAGGGAAGUAGATT against Gucy2e | inactive: 0.504

In a second layout: results already given.
Row	Sequence	z-score
51	GGGUGUCAAUUUACUUUUUTT against Slc16a2	inactive: 0.33
52	GCAUGCAUGUAUUUUUUAGTT against E030018N11Rik	inactive: 0.237
53	CCUCUAUGUGAGAUUUGAGTT against Mamdc2	inactive: -0.131

(list continues)

Row | Sequence | z-score
55 | GGAAACCAUCAUGAAGAAATT against Ysg2 | inactive: -0.657
56 | GCACGGUGAGAUCAUCAAATT against Ap3b2 | inactive: -0.226
57 | GGCUGAAUCGAAGAGACGGTT against Cntnap4 | inactive: 1.56
58 | CCCAAAUGUUAUUCCAAAUTT against 9230110C19Rik | inactive: 2.7
59 | GGAUGCUUUCAAACAUAUGTT against Olfr812 | inactive: 0.475
60 | GGAUGUCAUCAAUGCUAUGTT against Olfr1022 | inactive: -0.704
61 | GGACCAGUUACUUUAACAUTT against Pkdrej | inactive: -0.102
62 | GGCCUGCGUCAACUUUCUGTT against Btbd6 | inactive: 1.02
63 | GGACAAUGGUUCACUUUUATT against Gmpr | inactive: 1.24
64 | GCCACUUCCGGUCAACUAUTT against Cog1 | inactive: -1.81
65 | GGGUUGUGCAUUUUAUUGGTT against Srd5a2l2 | inactive: 0.0758
66 | GGCCUAGACUGGUGCAAUGTT against Hapln3 | inactive: 1.61
67 | CCUUUGCCUAUGUUUACCATT against Ropn1l | inactive: -0.695
68 | CGAUUUGAACACUGAUCAATT against Bub3 | inactive: -1.51
69 | GCCUUUUAUACAUGUUUGATT against LOC434198 | inactive: 0.964
70 | CCAGCCCAUACCCAUUACCTT against Olfr3 | inactive: -0.689
71 | GCUAUAAAUUCAGCAUUGGTT against Gtf2a2 | inactive: -0.941
72 | GGAGAAACAACAGUUUCAGTT against Maml1 | inactive: 1.63
73 | GGCUGUAACCUCUUCAUCUTT against Brunol6 | inactive: 0.624
74 | GGAAGAGAAGUUGUCCAAATT against Creld1 | inactive: -0.997
75 | GCAAAUGUGGGACAGUAAGTT against Wdfy2 | inactive: -1.92
76 | GGACCUAUAGUUCAACAAGTT against 2500001H09Rik | inactive: -1.42
77 | GGUUACCAGAAAAUAACUATT against E130114P18Rik | inactive: -0.516
78 | CCUAAUUGUAGUAGUACUATT against Olfr117 | inactive: 0.378
79 | GACACUCAGACGGAAUGUUTT against Sct | inactive: -1.85
80 | GGAGUUCAAAGACCCUCUGTT against 1810014L12Rik | inactive: -1.32
81 | GGCCACUUGCCUAUUGUGATT against Anxa6 | inactive: 1.97

2 records picked at random from those above, as already listed:
Row | Sequence | z-score
68 | CGAUUUGAACACUGAUCAATT against Bub3 | inactive: -1.51
69 | GCCUUUUAUACAUGUUUGATT against LOC434198 | inactive: 0.964

Continuation.

Row | Sequence | z-score
82 | GGUAGACUCUGACUUUGACTT against Tcfl1 | inactive: -0.768
83 | GCCUAUGAGUAUCGAAUGUTT against Trim21 | inactive: 0.126
84 | GGAAGCACUUCUGCUUUCUTT against 4933429I20Rik | inactive: 0.523
85 | CCAUUUCAGGUUCAAUCGGTT against B4galt7 | inactive: 1.26
86 | GCUAUACGCGAAAUUUGGCTT against Pfdn4 | inactive: 0.0886
87 | GCUUAUGACCCUAAGCACUTT against Tpte | inactive: -0.198
88 | GGAAAAGGUUUCUUCUAAATT against Nalp2 | inactive: 0.176
89 | CCAAGUAUUUCACAAACCGTT against Slc29a1 | inactive: 1.5
90 | GGAAUUCUUUCCAAACUGGTT against Steap | inactive: -0.74
91 | GGAGUUUCAGAUGUUGAAATT against Cpne2 | inactive: 0.44
92 | GGCAGAACCCACUGAGAAATT against Akap2 | inactive: 0.525
93 | GGCGAGUGCUGAAUCUUUGTT against Pcdhb20 | inactive: -0.105
94 | CCUGAAGCUUUUGAUCCUATT against Sec10l1 | inactive: 1.25
95 | GGCACUUUGUGGCAAAUCUTT against Pcdhb1 | inactive: -0.786
96 | GGAUUAUGUAGAGGCCCAATT against Gngt2 | inactive: 1.25
97 | GCCGGAUGACCUACCAUUUTT against Apoh | inactive: 0.649
98 | GGUACUGAGAGACAUCGAGTT against Tgtp | inactive: -0.0707
99 | GGAUACCUCAGUGACUACGTT against Scrt1 | inactive: -2.17
100 | GGAGCUAGCUGAGAUUUUCTT against Tnnc2 | inactive: 1.06
101 | GGUUGACGCGCAACAAAAUTT against Gp5 | inactive: 2.97
102 | GGCAUGAGUGCAUUUGCUATT against Ifi203 | inactive: -0.0595
103 | GGAACAGGUACUAGAAGUATT against 9130011E15Rik | inactive: 0.428
104 | GGAAGUGAAGGAAAGCAUCTT against Amaco | inactive: -0.315
105 | GCUAUAAAGGUGGUAACACTT against Col7a1 | inactive: 0.388
